{
  "source": "patent US20250114473A1",
  "about": "(priority 2023, published 2025)",
  "test": "general procedure: peptide synthesis; HOAt/DIPEA or HOBT/DIPEA (carbonate activation with B4NPC)",
  "settings": "conjugation step",
  "data": [
    {"substance": "Mal-Val-Cit-PAB-PEG4-MMAF", "values": [
      {"measurement": "conjugation yield", "value": 22, "unit": "%"}
    ]}
  ]
}
